Screening data, single-dose tests

Source: ChEMBL document CHEMBL3988442, “University of Dundee, Small-Polar-MMV Screening Library” (2021).

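Cell assay of Leishmania donovani living inside macrophages; the read-out is not stated. Concentration: 30 µM. Direction is inferred from retests: higher values go with stronger inhibition. Of about 69,000 compounds tested this way, about 1,000 (1.5%) reached 50% or more in at least one test.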

Results are given as percent effect.
The record does not define 0% and 100%; most values in the screen are far below 50% and negative numbers occur (in some assays of this library far below -100).
Compounds were drawn at random from those tested, without regard to their results.

With O=C(COCc1nc(-c2ccncc2)no1)N1CCCCC1 the screen gave -11.93%.
With CC(C)S(=O)(=O)CC(=O)NCC(Cc1ccc(F)cc1)C(N)=O (stereo unspecified) the screen gave -6.138%.
With CN(C)c1ncccc1NC(=O)COC1CCCC1 the screen gave 14.24%.
With Cc1cnc2c(S(=O)(=O)NC3CCS(=O)(=O)C3)cccc2c1 (stereo unspecified) the screen gave 21.85%.
With CCCOc1ccc2c(c1)OCC(CNC1CCc3ncnn3C1)=C2 (stereo unspecified) the screen gave 36.41%.
With Cc1nn(CC(=O)N2CCN(c3ccccc3F)CC2)c(C)c1Cl the screen gave -5.579%.
With Cc1nc(C(=O)N2CC[C@@]3(C[C@H](NS(C)(=O)=O)CCO3)C2)cs1 the screen gave 17.83%.
With COc1cc(-c2noc(C(CC(C)C)N3CCCCC3=O)n2)ccn1 (stereo unspecified) the screen gave -2.05%.
With Cc1cnn(CCNCC(O)c2ccc(S(C)(=O)=O)cc2)c1 (stereo unspecified) the screen gave 5.485%.
With CC(C)Oc1cc(N2C[C@@H](C)O[C@@H](C)C2)nc(N)n1 the screen gave 29.13%.
With Cc1csc(CCCNC(=O)NC2CC(=O)N(C(C)(C)C)C2)n1 (stereo unspecified) the screen gave 22.59%.
With O=C(NCCn1ccnc1)c1ccn(-c2cccc(F)c2)n1 the screen gave 17.73%.
With OC(c1ccccc1)c1cn(C2CCN(Cc3nccs3)CC2)nn1 (stereo unspecified) the screen gave 20.74%.
With CCn1ccc(C(=O)Nc2ccc3c(c2)C(C)(C)C(=O)N3C)n1 the screen gave -20.19%.
With O=C(c1ccccc1)N1CCN(CC(O)c2ccc(F)cc2)CC1 (stereo unspecified) the screen gave 37.69%.
With O=C(O)C(F)(F)F.[H][C@@]12COC[C@]1(C(=O)N1CCCO1)CN(Cc1nccs1)C2 the screen gave -6.766%.
With CCC(C)(CO)NC(=O)Nc1cc2c(cc1SC)OCCO2 (stereo unspecified) the screen gave 25.24%.
With CNC(=O)c1cccnc1NCCOc1ccc(CC#N)cc1 the screen gave 11.2%.
With Cc1nc(N2CCCC2)ncc1-c1cc(O)n2ncnc2n1 the screen gave 10.42%.
With O=C(CCCc1ccccn1)NCC(O)c1ccccc1Cl (stereo unspecified) the screen gave -7.252%.
With c1cc(NC2CC3(CCN(Cc4cc[nH]n4)C3)C2)ncn1 (stereo unspecified) the screen gave 10.06%.
With [H][C@@]12CN(c3ccc(C)nn3)C[C@@H](C(=O)NC3CCC3)[C@]1([H])CCO2 the screen gave 21.83%.
With COCC1CC2(CCN(Cc3nc(C)cs3)CC2)CO1 (stereo unspecified) the screen gave -1.009%.
With CN(Cc1cnccn1)c1cncc(Br)c1 the screen gave -52.1%.
With Cc1cc(C2CCN(C(=O)c3cnn(C)c3)CC2)ccn1 the screen gave -20.48%.
With O=S(=O)(NCCc1nc(-c2cccnc2)n[nH]1)NCc1ccccc1 the screen gave 16.71%.
With CCCSc1nn(CCN(C)C)c2nc3sc(C)c(CC)c3c(=O)n12 the screen gave 45.45%.
With Cc1cc(C(=O)N2CCc3ncnc(N4CCSCC4)c3CC2)[nH]n1 the screen gave 15.23%.
With O=C(CO)N1CCN(S(=O)(=O)CCCF)CC1 the screen gave 40.64%.
With CCc1cnc(CNC(=O)N2CCCC(C(=O)NC)C2)s1 (stereo unspecified) the screen gave -5.45%.
With Cc1c(C(=O)N2CCCC(C(=O)c3nccn3C)C2)c[nH]c(=O)c1C#N (stereo unspecified) the screen gave 26.73%.
With CC(C)C1CN(S(=O)(=O)N2CCCC2)CCCN1Cc1ccc(F)cc1 (stereo unspecified) the screen gave 40.25%.
With CC(C)(C)C(=O)NCCC1CN(Cc2ccccc2F)CCO1 (stereo unspecified) the screen gave 8.012%.
With CN(C)[C@H]1CCCCN(C(=O)COCc2nc3cc(F)ccc3[nH]2)C1 the screen gave 12.22%.
With COCc1ccccc1C(=O)NCC(O)c1ccccc1F (stereo unspecified) the screen gave 13.37%.
With CCOCCCC(=O)NC1CCN(C(C)c2ccccc2)CC1 (stereo unspecified) the screen gave -0.1104%.
With COCC(=O)N1CCN(c2ccc(C(=O)OC)cc2)CC1C (stereo unspecified) the screen gave 10.49%.
With COc1cc(NCc2ccncc2)c(-c2nn[nH]n2)cc1OC the screen gave -13.14%.

The first 3 entries again:

With O=C(COCc1nc(-c2ccncc2)no1)N1CCCCC1 the screen gave -11.93%.
With CC(C)S(=O)(=O)CC(=O)NCC(Cc1ccc(F)cc1)C(N)=O (stereo unspecified) the screen gave -6.138%.
With CN(C)c1ncccc1NC(=O)COC1CCCC1 the screen gave 14.24%.